Laboratory results taken from publication PMC10686573.
Results are given in words; binding and its absence hold for the method and conditions named. In cells and extracts the contact can be indirect. These calls come from enrichment with a bait or labelling near it, and not all partners need be listed.

Amino acid sequences for entries named in this document (tags omitted).
UniProt O35593: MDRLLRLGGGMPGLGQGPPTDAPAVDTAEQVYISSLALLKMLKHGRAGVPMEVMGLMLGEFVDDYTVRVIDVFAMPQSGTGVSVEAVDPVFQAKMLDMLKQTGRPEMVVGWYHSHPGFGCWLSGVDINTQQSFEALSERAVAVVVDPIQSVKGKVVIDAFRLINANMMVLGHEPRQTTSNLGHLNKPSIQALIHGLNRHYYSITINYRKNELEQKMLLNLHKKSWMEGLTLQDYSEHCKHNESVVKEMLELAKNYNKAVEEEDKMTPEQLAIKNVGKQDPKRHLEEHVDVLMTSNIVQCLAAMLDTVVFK
UniProt Q06180: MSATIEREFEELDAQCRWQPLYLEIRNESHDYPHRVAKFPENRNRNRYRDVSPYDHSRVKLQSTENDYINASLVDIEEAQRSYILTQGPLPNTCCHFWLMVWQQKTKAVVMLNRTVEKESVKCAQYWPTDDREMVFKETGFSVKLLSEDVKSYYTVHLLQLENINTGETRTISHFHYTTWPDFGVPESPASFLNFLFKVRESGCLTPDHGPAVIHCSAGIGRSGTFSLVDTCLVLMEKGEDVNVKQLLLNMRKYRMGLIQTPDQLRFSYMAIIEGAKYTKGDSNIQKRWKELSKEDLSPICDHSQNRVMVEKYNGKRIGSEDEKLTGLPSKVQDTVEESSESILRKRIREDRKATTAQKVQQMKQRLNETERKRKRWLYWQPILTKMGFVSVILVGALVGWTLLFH

Molecular target: Rpn11-TBHA (mouse knock-in, Psmd14^TBHA) (mouse) (UniProt O35593)
Test: affinity purification with mass spectrometry; 26S proteasomes purified by the TBHA-streptavidin system, eluted by TEV cleavage, MS; WT cells (compared with Rpt2-G2A cells), two independent MS experiments

membrane-localized tyrosine phosphatase PTPN2 (from UniProt Q06180 1-406) (enzyme)
binding: binds
